# The supplement of paper PMC4604168 (melanoma cell lines)
# The other results are listed elsewhere or left out. Repeats are few or missing, and single values can be far off.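 Imaging used 1,536-well plates; nuclei positive for cleaved PARP by antibody were divided by total DNA-stained nuclei to yield the apoptosis fraction. Doses for screening kept most cells viable, and cell lines differ markedly in resting and induced cleaved-PARP levels.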
# System: CBRC008 (line from a melanoma biopsy)
# Experiment: cleaved PARP positive nuclei fraction relative to DMSO control; melanoma cells; higher = more apoptosis
# Settings: library dose: low library concentration; 72 h
row,Compound,cleaved PARP positive nuclei fraction [%]
1,"CCCS(=O)(=O)Nc1ccc(F)c(C(=O)c2c[nH]c3ncc(Cl)cc23)c1F + C[As](C)SC[C@H](NC(=O)CC[C@H](N)C(=O)O)C(=O)NCC(=O)O [Darinaparsin] (first compound 0.08 µM, partner dose 0.4 µM)",123
2,"C[C@]12O[C@H](C[C@]1(O)CO)n1c3ccccc3c3c4c(c5c6ccccc6n2c5c31)CNC4=O [Lestaurtinib] + C=CCNC1=C2C[C@@H](C)C[C@H](OC)[C@H](O)[C@@H](C)/C=C(\C)[C@H](OC(N)=O)[C@@H](OC)/C=C\C=C(/C)C(=O)NC(=CC1=O)C2=O [Tanespimycin] (first compound 0.004 µM, partner dose 0.002 µM)",154
3,"C[C@]12O[C@H](C[C@]1(O)CO)n1c3ccccc3c3c4c(c5c6ccccc6n2c5c31)CNC4=O [Lestaurtinib] + O=C(O)[C@@H]1[O][Sb](=[O])([O][Sb]2(=[O])[O][C@H]([C@H](O)CO)[C@H](O)[C@H](C(=O)O)[O]2)[O][C@H]([C@H](O)CO)[C@@H]1O [stibogluconate] (first compound 0.004 µM, partner dose 2 µM)",92.1
4,"Cn1cc(C2=C(c3cn(C4CCN(Cc5ccccn5)CC4)c4ccccc34)C(=O)NC2=O)c2ccccc21 [Enzastaurin] + C=C(c1ccc(C(=O)O)cc1)c1cc2c(cc1C)C(C)(C)CCC2(C)C [Bexarotene] (first compound 0.8 µM, partner dose 2 µM)",122
